Over roughly 33,000 sequences, “E-score (-0.5 to 0.5)” has its median near -0.0014; the highest 2% begin near 0.25. This is one part of the list.
target: T1, Cad1 (UniProt P24813); test: PBM E-score (8-mer binding enrichment) (E-score (-0.5 to 0.5)); higher = stronger / more preferred TF binding; details: protein concentration: 100 nM; construct: GST-full length
T1 sequence: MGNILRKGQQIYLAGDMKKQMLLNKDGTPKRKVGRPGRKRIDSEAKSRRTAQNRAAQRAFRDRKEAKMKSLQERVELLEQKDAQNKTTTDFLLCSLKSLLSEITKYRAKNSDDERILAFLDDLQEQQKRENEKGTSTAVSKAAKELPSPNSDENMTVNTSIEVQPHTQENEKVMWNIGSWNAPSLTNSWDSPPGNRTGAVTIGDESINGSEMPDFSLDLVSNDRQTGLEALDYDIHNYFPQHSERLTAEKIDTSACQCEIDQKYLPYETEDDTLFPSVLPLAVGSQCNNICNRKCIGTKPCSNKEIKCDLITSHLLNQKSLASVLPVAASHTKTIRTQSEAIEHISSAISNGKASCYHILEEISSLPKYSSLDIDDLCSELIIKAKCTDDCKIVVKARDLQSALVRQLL
In short: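 Bound GST-tagged yeast transcription factors, applied at about 100-200 nM to double-stranded universal all-10-mer Agilent arrays, were detected with fluorescent anti-GST. Scans were normalised with masliner. A modified Wilcoxon-Mann-Whitney statistic, the E-score, was assigned to each ungapped eight-base word pooled with its reverse complement by the Universal PBM Analysis Suite.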

Sequence | PBM E-score
AGAAGAAT | -0.0672
AGTCCCCC | -0.437
ATGTCCCC | -0.107
CCTTTGGA | -0.166
ATTACTTC | -0.0817
CTTATATC | 0.0947
AGGATAGA | -0.0415
CCTAATCA | 0.115
AGATCCCC | -0.176
CTCTTAAA | 0.222
ATGGCATA | 0.0437
AGTCTCGG | -0.0898
AGCCCATG | -0.00466
ACGCTAAT | 0.0761
CAGGACGG | -0.0398
ACAGTGCT | 0.0829
ATCTCAAT | -0.0587
ACGAACTC | 0.192
ATATGTCG | 0.0385
ATTTAAAC | 0.109
AGTCACTG | 0.0505
GGCTGGAC | -0.232

Sequence | PBM E-score
CTCCTTAA | -0.194
TAACCTTA | -0.0788
AATATACA | 0.0965
GGTGGTGA | -0.0135
CGTGTTCA | 0.112
TTGGCAAA | 0.121
ACCATGAT | -0.0821
CTAGTCAA | -0.095
GGGTAGAC | -0.191
CGGCCAAG | -0.0515
ATCTCACC | 0.0699
ACATCCTC | -0.124
ACCTTGAC | -0.0199
CTCTTGCA | -0.0966
TAATGGCA | 0.0744
AGTCTCCA | -0.107
CTCCGCGA | 0.113
CGCTCGCC | 0.111
CCGATGAG | 0.0417
CCGAATCC | 0.115
CCATTGCC | -0.0498
GCTCAAGA | -0.255

Sequence | PBM E-score
CTGTATTC | 0.112
GGTGTGTA | -0.0108
AAGCAATG | 0.129
GCGACGAA | 0.0483
ACGTAAAA | 0.116
CCTTTAAA | -0.188
AAGAGATT | 0.0855
TAAGGCTA | -0.0214
CCGCACGC | 0.00426
ACCTTACA | 0.0057
CCCTTGTC | -0.116
GGAGATAA | 0.0145
ATAGTGCC | 0.023
AGGAACCG | -0.0309
CACGCGAC | -0.0843
CGCGCATA | 0.0311
AGGACGAT | -0.00359
GGACGGTA | -0.0373
CCTCTGGA | -0.172
ACATAAGG | 0.187
GCCTGTCA | 0.00179
ATCGGAAT | 0.206

Sequence | PBM E-score
AGTTGAAG | -0.0031
CCGCAGCC | -0.132
CACATAAC | -0.0202
ACACCCTA | 0.0759
AAGCAACC | 0.0395
CCGTTCGC | -0.0602
AACTGACG | -0.0709
ATCCGACG | 0.0868
AGAGCGCT | 0.1
AACACATC | 0.0909
GGTTACTA | 0.0723
GCATGTGA | 0.015
CGACAGCA | 0.0252
GACATGCA | -0.13
ATGGGTCG | -0.0602
GTCGCATA | 0.115
ACCTGAGT | 0.0744
AGGCCTTC | -0.0154
CGACCTTC | -0.0438
GATCTCGA | 0.181
ACTGGCAG | -0.128
AGATACAG | 0.0445

Individual results from the entries so far:
Under PBM E-score, ACGAACTC has 0.192
Under PBM E-score, AGTCTCGG has -0.0898
Under PBM E-score, TAACCTTA has -0.0788
Under PBM E-score, ATCCGACG has 0.0868
Under PBM E-score, CTCTTAAA has 0.222

More records follow:

Sequence | PBM E-score
ACACGCAG | -0.157
GGGATAAA | 0.168
CCCTCGCA | -0.0841
GGTCAAAC | -0.0442
GCAACTGA | 0.161
GCTCAGAA | -0.0445
GTCGGAAC | -0.0456
AGGATCCC | -0.144
GCTCCTAA | -0.162
ACGCCTGC | -0.173
GCATCCGC | -0.00028
CCTTTTGC | -0.223
ACTTTAAG | 0.104
TATTAGGA | 0.177
AAACAGAA | 0.0706
CCTCACTA | -0.0425
ATCGGCCC | -0.00956
CTCATACA | 0.0928
CGGCGTAA | 0.116
AATTCCAA | 0.0834
CTTCCAGA | -0.0786
GCATATTA | 0.141

From the supplement of paper PMC3334620
